This is one part of the list.
Compound: C1COCCN1CCN2C3=CC=CC=C3N=C2NC(=O)C4=CC(=CC=C4)[N+](=O)[O-] [IRAK-1-4 Inhibitor I]
Assay: log2 fold change, soluble protein after heating vs DMSO (PISA); higher = thermal stabilisation; K562 lysate, 10 uM; active = over 0.2 and 3.5 SD of the protein, either way, in both replicates (recomputed)
Procedure, shortened: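 To prepare the extract, K562 pellets were dounce-homogenised in PBS pH 7.4 with 1 mM MgCl2, giving crude material at 1 mg/mL protein. This was treated with 10 μM compound for 30 min, then heated in aliquots for 3 min over 48°C-58°C before pooling and addition of NP-40 to 0.5% at 4°C. Centrifugation at 21,000xg for 90 min left soluble protein in the supernatant, which TMTpro 16plex LC-MS/MS quantified with equalised channel sums. Results are log-two fold changes in thermal stability compared with solvent controls, from duplicates.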

Protein sequences, listed by entry. Tags and fused reporters are not part of them. Lines headed by an entry give the natural chain unless they say otherwise; changes in a name come on top.
UniProt P14174: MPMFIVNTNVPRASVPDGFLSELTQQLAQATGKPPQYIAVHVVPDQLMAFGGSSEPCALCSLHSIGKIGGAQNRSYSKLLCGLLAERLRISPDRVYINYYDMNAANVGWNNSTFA
UniProt Q13724: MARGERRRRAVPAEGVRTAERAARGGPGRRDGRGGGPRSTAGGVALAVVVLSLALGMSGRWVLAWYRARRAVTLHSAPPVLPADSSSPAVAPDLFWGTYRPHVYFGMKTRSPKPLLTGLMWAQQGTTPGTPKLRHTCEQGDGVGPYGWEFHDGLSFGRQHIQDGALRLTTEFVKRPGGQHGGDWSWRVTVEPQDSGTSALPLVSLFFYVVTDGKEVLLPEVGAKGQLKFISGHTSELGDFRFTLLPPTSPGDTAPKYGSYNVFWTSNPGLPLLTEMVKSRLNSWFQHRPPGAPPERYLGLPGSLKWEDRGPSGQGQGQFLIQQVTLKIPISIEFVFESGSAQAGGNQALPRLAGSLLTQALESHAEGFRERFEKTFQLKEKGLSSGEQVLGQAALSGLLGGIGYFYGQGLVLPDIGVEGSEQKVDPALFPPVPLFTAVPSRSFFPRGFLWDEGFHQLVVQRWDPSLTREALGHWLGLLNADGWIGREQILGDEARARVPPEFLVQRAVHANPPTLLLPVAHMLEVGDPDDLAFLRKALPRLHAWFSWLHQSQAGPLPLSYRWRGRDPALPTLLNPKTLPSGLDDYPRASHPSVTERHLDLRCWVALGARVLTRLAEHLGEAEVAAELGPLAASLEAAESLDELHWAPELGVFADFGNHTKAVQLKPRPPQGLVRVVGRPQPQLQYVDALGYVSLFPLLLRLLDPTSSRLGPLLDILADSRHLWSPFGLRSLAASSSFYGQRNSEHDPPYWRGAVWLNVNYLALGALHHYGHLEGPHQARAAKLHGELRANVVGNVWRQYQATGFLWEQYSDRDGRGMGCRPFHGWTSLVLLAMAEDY
UniProt Q5TGZ0: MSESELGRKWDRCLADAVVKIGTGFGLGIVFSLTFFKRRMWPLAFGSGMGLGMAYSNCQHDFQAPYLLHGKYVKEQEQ
UniProt Q9BU76: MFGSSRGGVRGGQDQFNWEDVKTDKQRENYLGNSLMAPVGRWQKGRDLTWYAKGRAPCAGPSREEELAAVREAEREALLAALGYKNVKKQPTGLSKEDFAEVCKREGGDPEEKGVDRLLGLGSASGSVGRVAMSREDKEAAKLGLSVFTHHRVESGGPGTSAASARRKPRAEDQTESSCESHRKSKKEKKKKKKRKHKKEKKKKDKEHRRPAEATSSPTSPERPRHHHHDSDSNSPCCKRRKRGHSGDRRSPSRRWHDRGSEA
UniProt Q9UL63, whole entry, looked up: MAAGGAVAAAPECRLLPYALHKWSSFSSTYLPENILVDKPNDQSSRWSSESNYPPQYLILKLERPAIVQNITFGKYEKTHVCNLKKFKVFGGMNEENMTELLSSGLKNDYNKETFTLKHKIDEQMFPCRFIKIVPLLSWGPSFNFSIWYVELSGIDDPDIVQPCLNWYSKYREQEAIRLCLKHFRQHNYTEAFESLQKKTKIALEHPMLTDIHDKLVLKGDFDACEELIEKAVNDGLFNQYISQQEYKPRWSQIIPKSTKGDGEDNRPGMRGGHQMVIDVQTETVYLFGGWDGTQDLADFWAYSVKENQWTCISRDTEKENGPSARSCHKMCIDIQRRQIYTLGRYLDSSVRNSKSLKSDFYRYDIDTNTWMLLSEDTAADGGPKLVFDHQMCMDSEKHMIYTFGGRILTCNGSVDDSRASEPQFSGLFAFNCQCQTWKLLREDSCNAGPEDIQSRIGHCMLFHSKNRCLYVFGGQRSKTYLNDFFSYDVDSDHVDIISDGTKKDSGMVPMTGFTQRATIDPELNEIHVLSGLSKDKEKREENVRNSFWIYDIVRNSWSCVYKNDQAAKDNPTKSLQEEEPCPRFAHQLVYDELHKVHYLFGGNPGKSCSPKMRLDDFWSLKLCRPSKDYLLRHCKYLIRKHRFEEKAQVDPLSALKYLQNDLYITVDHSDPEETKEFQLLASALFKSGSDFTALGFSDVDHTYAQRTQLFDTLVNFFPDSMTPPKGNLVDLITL
UniProt Q9NZB8: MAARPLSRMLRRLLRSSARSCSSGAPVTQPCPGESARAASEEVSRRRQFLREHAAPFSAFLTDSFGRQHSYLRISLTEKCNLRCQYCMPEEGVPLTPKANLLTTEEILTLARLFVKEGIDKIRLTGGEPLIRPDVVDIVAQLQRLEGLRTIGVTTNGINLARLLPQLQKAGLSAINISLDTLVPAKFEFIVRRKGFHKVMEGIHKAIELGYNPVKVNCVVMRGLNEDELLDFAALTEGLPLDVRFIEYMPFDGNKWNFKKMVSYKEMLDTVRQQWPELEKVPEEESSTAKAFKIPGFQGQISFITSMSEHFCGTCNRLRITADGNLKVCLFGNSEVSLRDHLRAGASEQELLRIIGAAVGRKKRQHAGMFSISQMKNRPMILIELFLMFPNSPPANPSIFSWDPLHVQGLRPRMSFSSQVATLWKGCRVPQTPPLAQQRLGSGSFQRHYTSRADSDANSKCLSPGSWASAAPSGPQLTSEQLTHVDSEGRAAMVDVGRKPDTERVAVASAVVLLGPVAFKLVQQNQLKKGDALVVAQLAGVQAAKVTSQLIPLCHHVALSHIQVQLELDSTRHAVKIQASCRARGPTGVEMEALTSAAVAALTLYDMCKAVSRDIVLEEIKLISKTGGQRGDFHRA
UniProt Q70IA6: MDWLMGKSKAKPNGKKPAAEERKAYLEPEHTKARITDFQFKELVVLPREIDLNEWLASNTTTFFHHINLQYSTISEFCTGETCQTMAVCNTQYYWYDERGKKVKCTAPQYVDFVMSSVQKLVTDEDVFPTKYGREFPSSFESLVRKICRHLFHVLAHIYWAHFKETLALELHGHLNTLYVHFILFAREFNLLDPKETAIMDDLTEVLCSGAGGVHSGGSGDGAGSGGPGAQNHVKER
UniProt Q9UBU8, whole entry, looked up: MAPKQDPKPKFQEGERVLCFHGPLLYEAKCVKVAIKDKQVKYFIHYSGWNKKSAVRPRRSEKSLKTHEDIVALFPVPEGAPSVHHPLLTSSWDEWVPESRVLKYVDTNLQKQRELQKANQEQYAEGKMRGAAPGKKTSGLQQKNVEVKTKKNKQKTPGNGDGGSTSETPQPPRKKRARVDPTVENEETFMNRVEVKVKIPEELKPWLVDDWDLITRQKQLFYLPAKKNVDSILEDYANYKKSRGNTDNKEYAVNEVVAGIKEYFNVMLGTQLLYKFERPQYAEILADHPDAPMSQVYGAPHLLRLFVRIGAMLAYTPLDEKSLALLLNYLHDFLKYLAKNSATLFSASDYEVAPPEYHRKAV
UniProt Q9UNW1: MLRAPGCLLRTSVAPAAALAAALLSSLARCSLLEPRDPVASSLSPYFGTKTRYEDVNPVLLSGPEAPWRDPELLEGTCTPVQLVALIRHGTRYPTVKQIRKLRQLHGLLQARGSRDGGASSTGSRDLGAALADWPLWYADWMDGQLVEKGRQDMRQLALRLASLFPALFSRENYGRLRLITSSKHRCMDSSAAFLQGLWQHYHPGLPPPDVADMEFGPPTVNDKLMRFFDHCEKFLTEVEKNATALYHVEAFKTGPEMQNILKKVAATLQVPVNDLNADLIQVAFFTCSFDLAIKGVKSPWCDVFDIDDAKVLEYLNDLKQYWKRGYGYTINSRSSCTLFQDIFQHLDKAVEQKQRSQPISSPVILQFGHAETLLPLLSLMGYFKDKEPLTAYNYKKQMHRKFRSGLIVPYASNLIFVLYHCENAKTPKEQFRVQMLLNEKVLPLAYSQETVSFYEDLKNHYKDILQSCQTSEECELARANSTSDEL
UniProt Q03111: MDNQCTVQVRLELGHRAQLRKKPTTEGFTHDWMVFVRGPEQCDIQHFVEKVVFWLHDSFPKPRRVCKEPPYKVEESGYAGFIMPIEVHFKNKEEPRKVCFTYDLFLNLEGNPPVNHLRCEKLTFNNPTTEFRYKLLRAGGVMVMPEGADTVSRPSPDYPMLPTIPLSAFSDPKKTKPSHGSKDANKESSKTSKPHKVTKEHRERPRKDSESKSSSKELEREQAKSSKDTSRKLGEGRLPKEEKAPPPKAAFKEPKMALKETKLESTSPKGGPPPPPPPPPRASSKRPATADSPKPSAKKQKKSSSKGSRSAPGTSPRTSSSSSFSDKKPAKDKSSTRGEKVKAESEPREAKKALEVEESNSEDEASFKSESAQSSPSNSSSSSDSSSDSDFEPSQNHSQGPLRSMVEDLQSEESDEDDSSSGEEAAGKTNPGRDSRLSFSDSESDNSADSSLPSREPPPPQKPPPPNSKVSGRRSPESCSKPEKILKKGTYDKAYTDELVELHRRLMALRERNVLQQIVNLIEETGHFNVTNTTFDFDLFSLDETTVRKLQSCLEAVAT
UniProt O95396: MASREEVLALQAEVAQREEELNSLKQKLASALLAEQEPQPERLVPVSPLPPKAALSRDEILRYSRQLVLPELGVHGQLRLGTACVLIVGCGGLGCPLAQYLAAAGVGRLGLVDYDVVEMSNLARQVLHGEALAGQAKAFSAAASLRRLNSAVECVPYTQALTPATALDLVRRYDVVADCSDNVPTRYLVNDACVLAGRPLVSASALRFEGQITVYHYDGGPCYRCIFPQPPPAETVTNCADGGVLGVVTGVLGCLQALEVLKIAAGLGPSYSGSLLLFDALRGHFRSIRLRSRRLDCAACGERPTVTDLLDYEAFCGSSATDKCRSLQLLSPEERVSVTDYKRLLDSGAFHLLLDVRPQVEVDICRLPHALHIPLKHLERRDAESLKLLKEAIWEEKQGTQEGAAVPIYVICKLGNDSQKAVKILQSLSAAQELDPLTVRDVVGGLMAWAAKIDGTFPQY
UniProt Q96BX8: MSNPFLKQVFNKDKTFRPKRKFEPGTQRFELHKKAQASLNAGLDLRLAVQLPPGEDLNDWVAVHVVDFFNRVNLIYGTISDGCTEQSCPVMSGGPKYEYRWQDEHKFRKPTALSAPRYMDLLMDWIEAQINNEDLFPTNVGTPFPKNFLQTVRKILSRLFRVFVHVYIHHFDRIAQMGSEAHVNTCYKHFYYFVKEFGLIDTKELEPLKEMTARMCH
UniProt Q9H081: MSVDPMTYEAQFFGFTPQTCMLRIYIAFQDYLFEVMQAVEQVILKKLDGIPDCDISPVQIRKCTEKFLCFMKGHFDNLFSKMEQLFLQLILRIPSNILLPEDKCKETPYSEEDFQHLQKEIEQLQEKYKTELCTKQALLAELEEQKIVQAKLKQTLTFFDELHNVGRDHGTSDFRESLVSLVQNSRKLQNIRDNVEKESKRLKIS
UniProt Q9UHC7: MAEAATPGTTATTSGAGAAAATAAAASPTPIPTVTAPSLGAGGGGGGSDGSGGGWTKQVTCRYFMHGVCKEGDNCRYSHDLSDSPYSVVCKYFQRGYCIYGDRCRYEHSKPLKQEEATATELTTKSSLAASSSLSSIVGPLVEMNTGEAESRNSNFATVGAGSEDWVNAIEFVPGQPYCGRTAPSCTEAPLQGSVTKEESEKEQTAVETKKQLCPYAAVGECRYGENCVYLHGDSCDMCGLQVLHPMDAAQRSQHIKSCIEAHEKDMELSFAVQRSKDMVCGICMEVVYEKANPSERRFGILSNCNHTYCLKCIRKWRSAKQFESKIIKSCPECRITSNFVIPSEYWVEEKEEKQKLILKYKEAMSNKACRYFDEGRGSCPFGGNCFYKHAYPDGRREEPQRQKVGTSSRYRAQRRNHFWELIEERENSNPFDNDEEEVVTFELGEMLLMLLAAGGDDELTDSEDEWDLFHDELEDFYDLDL
UniProt Q7L1V2: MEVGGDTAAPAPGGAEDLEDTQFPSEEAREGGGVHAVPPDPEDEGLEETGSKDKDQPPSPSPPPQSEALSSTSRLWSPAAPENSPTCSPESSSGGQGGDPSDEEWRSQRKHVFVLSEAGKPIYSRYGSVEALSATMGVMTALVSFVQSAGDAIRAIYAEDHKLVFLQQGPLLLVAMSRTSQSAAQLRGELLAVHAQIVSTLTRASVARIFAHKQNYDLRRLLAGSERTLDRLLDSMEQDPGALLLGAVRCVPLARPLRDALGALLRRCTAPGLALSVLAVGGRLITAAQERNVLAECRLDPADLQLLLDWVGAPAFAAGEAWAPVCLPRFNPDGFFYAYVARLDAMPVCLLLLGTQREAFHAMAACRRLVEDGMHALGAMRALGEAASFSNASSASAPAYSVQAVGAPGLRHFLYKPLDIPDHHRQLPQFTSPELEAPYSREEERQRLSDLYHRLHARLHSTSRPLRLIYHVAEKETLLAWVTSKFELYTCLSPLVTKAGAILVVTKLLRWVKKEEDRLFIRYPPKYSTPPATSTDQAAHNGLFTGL
UniProt Q15773: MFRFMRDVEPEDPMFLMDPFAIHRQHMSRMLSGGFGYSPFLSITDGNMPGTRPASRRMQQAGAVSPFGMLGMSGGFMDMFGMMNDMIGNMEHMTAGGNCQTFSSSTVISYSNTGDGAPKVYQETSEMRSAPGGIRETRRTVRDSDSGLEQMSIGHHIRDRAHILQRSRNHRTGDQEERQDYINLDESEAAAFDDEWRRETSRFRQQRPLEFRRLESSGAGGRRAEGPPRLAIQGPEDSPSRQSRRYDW

log2 fold change, inactive:
MOB1B isoform 2 (UniProt Q7L9L4) 0.023
MINK1 (UniProt Q8N4C8) 0.061
MKRN2 (UniProt Q9H000) 0.019
MIF (UniProt P14174) 0.058
MOGS (UniProt Q13724) 0.002
MICOS10 (UniProt Q5TGZ0) 0.003
MICB, A0A140T979 0.023
MMTAG2 (UniProt Q9BU76) -0.01
MPST isoform 2 (UniProt P25325) -0.007
MRPL14 (UniProt Q6P1L8) -0.042
MRPL23 (UniProt Q16540) 0.094
MGME1 (UniProt Q9BQP7) 0.023
MRM3 (UniProt Q9HC36) -0.014
MLXIP (UniProt Q9HAP2) 0.003
MPP6 (UniProt Q9NZW5) -0.01
MMUT (UniProt P22033) -0.017
MKLN1 (UniProt Q9UL63) -0.016
MPHOSPH10 (UniProt O00566) 0.001
MOCS1 isoform 8 (UniProt Q9NZB8) 0.02
MOB2 isoform 3 (UniProt Q70IA6) -0.032
MORF4L1 isoform 2 (UniProt Q9UBU8) 0.013
MINPP1 (UniProt Q9UNW1) -0.017
MNX1 (UniProt P50219) -0.043
MLLT1 (UniProt Q03111) 0.034
MRPL19 (UniProt P49406) 0
MPRIP isoform 2 (UniProt Q6WCQ1) 0.004
MOCS3 (UniProt O95396) 0.049
MICAL3 (UniProt Q7RTP6) -0.001
MOB3A (UniProt Q96BX8) 0.032
MMADHC (UniProt Q9H3L0) 0.017
MPZL1 (UniProt O95297) 0.015
MIS12 (UniProt Q9H081) 0.007
MPLKIP (UniProt Q8TAP9) 0.043
MKRN1 (UniProt Q9UHC7) 0.089
MMAB (UniProt Q96EY8) 0.033
MON1B (UniProt Q7L1V2) 0.03
MGST1 (UniProt P10620) 0.067
MLF2 (UniProt Q15773) 0

Pulled one by one from above (2):
log2 fold change, inactive:
MINK1 (UniProt Q8N4C8) 0.061
MRM3 (UniProt Q9HC36) -0.014
